These are yes or no findings as the source states them, for the method shown. Some binding calls cover weakened binding; strength is not graded here. For part of these data: Tags and fused reporters may be left off the sequences shown. One block for each binder: values may come before it.
Tests used:
[1] = molecular target: TRF2, full-length (1-542) (UniProt Q15554); experiment: co-purification (StrepTrap affinity, then SEC); TRF2 and untagged RAP1 co-expressed in Sf9; lysate on StrepTrap HP through the Twin-Strep-tag of TRF2, 1 M NaCl wash, desthiobiotin elution, TEV, Superdex 200 Increase 10/300 GL in 300 mM NaCl, 20 mM Hepes pH 7.5, 10% glycerol, 0.5 mM TCEP; SDS-PAGE of the peak
[2] = molecular target: T1, Protection of telomeres protein 1 (POT1), full-length (1-634) (human) (UniProt Q9NUX5); experiment: native gel or EMSA; WEMSA: purified POT1-TPP1-TIN2(1-354) (10 pM to 100 nM) with 10 or 20 nM 32P-labelled telo64 DNA, native PAGE, electroblot to PVDF, phosphorimaging, then immunoblot with anti-TIN2, anti-TPP1 and anti-POT1; both purified
T1 sequence: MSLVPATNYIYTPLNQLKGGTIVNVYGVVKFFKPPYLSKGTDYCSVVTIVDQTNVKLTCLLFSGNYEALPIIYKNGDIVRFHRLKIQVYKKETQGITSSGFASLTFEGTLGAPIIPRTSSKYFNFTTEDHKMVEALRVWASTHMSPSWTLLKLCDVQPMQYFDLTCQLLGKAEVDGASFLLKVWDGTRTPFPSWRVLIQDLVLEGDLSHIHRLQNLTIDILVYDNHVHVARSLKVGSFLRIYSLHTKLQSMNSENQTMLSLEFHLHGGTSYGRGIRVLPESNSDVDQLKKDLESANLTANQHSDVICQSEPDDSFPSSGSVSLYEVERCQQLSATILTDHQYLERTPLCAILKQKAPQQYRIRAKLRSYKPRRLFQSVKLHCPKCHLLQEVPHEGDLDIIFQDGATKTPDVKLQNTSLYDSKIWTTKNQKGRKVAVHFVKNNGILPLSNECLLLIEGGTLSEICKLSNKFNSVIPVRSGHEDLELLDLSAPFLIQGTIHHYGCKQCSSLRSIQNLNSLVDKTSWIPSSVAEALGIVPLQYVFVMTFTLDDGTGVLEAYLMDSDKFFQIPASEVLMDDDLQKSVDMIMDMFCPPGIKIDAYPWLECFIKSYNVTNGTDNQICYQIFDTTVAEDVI

Sequences of proteins named here, by UniProt entry; tags and fusion partners are left off.
UniProt Q15554: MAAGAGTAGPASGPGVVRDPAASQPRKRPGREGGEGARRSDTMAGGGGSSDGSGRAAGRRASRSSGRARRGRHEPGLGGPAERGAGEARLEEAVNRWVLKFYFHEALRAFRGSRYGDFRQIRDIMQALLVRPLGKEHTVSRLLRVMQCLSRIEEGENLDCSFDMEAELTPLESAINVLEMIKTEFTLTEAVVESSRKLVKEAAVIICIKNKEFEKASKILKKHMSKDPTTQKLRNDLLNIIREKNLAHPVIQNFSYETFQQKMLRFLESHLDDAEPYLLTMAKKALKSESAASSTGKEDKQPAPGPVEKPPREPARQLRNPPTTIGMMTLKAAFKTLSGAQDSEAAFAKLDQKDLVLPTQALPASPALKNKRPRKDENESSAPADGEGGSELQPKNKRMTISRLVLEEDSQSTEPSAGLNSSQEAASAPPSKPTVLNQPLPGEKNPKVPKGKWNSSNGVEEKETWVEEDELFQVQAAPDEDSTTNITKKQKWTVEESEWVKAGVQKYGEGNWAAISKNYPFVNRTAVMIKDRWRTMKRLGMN

[3] = molecular target: T1, Protection of telomeres protein 1 (POT1), full-length (1-634) (human); experiment: co-purification (HisTrap affinity, then SEC); POT1, TPP1 and TIN2(1-354) co-expressed in Sf9; lysate on HisTrap HP through the His-10 tag of POT1, 1 M NaCl wash, imidazole elution, TEV, second HisTrap, Superdex 200 Increase 10/300 GL in 300 mM NaCl, 20 mM Hepes pH 7.5, 10% glycerol, 1 mM …; SDS-PAGE of the peak

binding [1]: binds
B1: RAP1, full-length (1-399), untagged (protein, UniProt Q9NYB0 1-399)
chain: MAEAMDLGKDPNGPTHSSTLFVRDDGSSMSFYVRPSPAKRRLSTLILHGGGTVCRVQEPGAVLLAQPGEALAEASGDFISTQYILDCVERNERLELEAYRLGPASAADTGSEAKPGALAEGAAEPEPQRHAGRIAFTDADDVAILTYVKENARSPSSVTGNALWKAMEKSSLTQHSWQSLKDRYLKHLRGQEHKYLLGDAPVSPSSQKLKRKAEEDPEAADSGEPQNKRTPDLPEEEYVKEEIQENEEAVKKMLVEATREFEEVVVDESPPDFEIHITMCDDDPPTPEEDSETQPDEEEEEEEEKVSQPEVGAAIKIIRQLMEKFNLDLSTVTQAFLKNSGELEATSAFLASGQRADGYPIWSRQDDIDLQKDDEDTREALVKKFGAQNVARRIEFRKK

binding [2]: binds | binding [3]: binds
B2: TIN2(1-354), C-terminal truncation variant (domain or fragment, UniProt Q9BSI4 1-354)
chain: MATPLVAGPAALRFAAAASWQVVRGRCVEHFPRVLEFLRSLRAVAPGLVRYRHHERLCMGLKAKVVVELILQGRPWAQVLKALNHHFPESGPIVRDPKATKQDLRKILEAQETFYQQVKQLSEAPVDLASKLQELEQEYGEPFLAAMEKLLFEYLCQLEKALPTPQAQQLQDVLSWMQPGVSITSSLAWRQYGVDMGWLLPECSVTDSVNLAEPMEQNPPQQQRLALHNPLPKAKPGTHLPQGPSSRTHPEPLAGRHFNLAPLGRRRVQSQWASTRGGHKERPTVMLFPFRNLGSPTQVISKPESKEEHAIYTADLAMGTRAASTGKSKSPCQTLGGRALKENPVDLPATEQKE

From article PMC8853558
